Assay results taken from patent US12729221B2, “Anti-inflammatory peptide and use thereof” (MITO QUEST CO., LTD., priority 2020, dated 2026).
Part of at least one peptide drawing is inferred or uncertain, most often the ends. Where no end group is shown, it is not given here.

Experiments:
[1] = system: interferon-beta (IFN-b); experiment: polyIC-induced IFN-b expression in MLE-12 cells, ELISA; format: cell-based, mouse; settings: 5 mg/ml polyIC, 16 hours
Method: Specifically, polyinosinic:polycytidylic acid (polyIC), which is a synthetic ribonucleic acid known to be associated with viral infection among the PAMPs and promotes the production of interferon and is analogous to an RNA virus gene, was used to induce a viral infection response. First, a serum-free cell culture medium containing 5 mg/ml polyIC and MQP-15, MQP-23, MQP-31, MQP-37, MQP-Y9 or MQP-T234 was treated with 1×10^5 cells of a mouse lung epithelial cell line (MLE-12) for 16 hours. Then, the supernatant was obtained and the expression level of interferon-beta (IFN-b) was checked by enzyme-linked immunosorbent assay (ELISA).
(§1) Specifically, LPS and ATP were used to induce an inflammasome response caused by bacterial infection, and polyIC was used to induce an inflammatory response caused by viral infection. First, 1 mg/ml LPS and 5 mM or 1 mM novel alanine-substituted peptide were mixed in a serum-free cell culture medium, followed by treatment with 1×10^5 cells of IC21. Thereafter, 5 mM ATP and 5 mM or 1 mM novel alanine-substituted peptide were mixed in a serum-free cell culture medium and treated for 30 minutes. Then, the supernatant was obtained and the expression level of IL-1b was checked by ELISA. Also, 5 mg/ml polyIC and 25 mM or 2 mM novel alanine-substituted peptide were mixed in a serum-free cell culture medium, followed by treatment with 1×10^5 cells of MLE-12 for 16 hours. Thereafter, the supernatant was obtained and the expression level of IFN-b was checked by ELISA.
as §1, with “2” for “5 mM or 1”, “amino acid-substituted” for “alanine-substituted”, “and” for “and 25 mM or”
Specifically, polyIC was used to induce a viral infection response. First, a serum-free cell culture medium containing 5 mg/ml polyIC and MQP-37, MQP-37A6, MQP-37D6W, MQP-37D6Y, MQP-37D6H, MQP-37D6K, MQP-37D6R or MQP-37D6V was treated with 1×10^5 cells of MLE-12 for 16 hours. Then, the supernatant was obtained and the expression level of IFN-b was checked by ELISA.

[2] = molecular target: T1, MAVS proteins (Mus musculus, UniProt Q8VCF0); experiment: MAVS aggregation induced by LPS and nigericin, Western blot of isolated mitochondria; format: cell-based; settings: 5 mM peptide; IC21; 1 mg/ml LPS 4 hours then 5 mM nigericin 1 hour; vs control group treated with endotoxin and nigericin
T1 construct: mitochondria in IC21 were isolated with a hypotonic buffer and centrifugation; endogenous in cells; host or cells: IC21 mouse peritoneal macrophage cell line
T1 sequence (Q8VCF0 1-503): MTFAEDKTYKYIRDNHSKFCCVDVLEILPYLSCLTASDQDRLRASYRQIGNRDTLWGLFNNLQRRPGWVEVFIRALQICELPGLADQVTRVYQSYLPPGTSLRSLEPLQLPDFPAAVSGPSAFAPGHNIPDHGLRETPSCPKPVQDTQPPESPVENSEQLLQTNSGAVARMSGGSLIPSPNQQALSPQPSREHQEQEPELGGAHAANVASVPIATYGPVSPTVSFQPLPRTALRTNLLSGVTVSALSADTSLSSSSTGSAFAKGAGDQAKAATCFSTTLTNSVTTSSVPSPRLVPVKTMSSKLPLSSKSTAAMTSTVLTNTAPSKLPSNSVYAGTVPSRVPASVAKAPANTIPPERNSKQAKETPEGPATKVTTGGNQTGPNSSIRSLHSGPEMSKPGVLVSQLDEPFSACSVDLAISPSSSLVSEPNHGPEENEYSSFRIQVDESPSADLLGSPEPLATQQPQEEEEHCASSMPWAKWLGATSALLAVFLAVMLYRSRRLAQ
Method: Specifically, the aggregation of MAVS proteins was induced by stimulation with pathogen-associated molecular patterns (PAMPs), and endotoxin (lipopolysaccharide (LPS)) and nigericin were used as the PAMPs. First, 5 mM MQP-15, MQP-23, MQP-31 or MQP-37 was added to a serum-free cell culture medium containing 1 mg/ml LPS, followed by treatment with 1×10^5 cells of a mouse peritoneal macrophage cell line (IC21) for 4 hours. Then, 5 mM MQP-15, MQP-23, MQP-31 or MQP-37 was added to a serum-free cell culture medium containing 5 mM nigericin, followed by treatment with IC21 for additional 1 hour. Thereafter, mitochondria in IC21 were isolated with a hypotonic buffer and centrifugation. Then, in order to check the result of MAVS aggregation by the Western blot, a sample was prepared using a semi-denaturing detergent in the isolated mitochondria and electrophoresis was performed. After the electrophoretically isolated mitochondrial protein was transferred to a polyvinylidene difluoride (PVDF) membrane, a primary antibody recognizing the MAVS proteins and a secondary antibody recognizing the primary antibody were additionally treated. Thereafter, the aggregation of MAVS proteins was checked by inducing a chemiluminescence reaction of the secondary antibody.

[3] = system: interleukin-1beta (IL-1b); experiment: IL-1b expression induced by LPS, OMV or LPS and nigericin in IC21, ELISA; format: cell-based, mouse
Method: Specifically, LPS (lipopolysaccharide) and Gram-negative bacteria-derived outer membrane vesicle (OMV) were used as endotoxins to induce the inflammasome response caused by bacterial infection. First, 5 mM MQP-15, MQP-23, MQP-31 or MQP-37 was added to a serum-free cell culture medium containing 0.1 mg/ml LPS or OMV, followed by treatment with 1×10^5 cells of IC21 for 6 hours. Also, MQP-37 or MQP-Y9 was added to a serum-free cell culture medium containing 1 mg/ml LPS and 5 mM nigericin, followed by treatment for 5 hours (LPS treatment-4 hours; nigericin treatment-1 hour). Then, the supernatant was obtained and the expression level of interleukin-1beta (IL-1b) was checked by ELISA, and the cells were lysed and subjected to SDS-PAGE, and the inflammasome factors were analyzed by the Western blot.

[4] = system: caspase-1; experiment: Inflammasome factors by Western blot (caspase-1 activation); format: cell-based, mouse; settings: IC21, FIG. 5C-E
[5] = system: interleukin-6 (IL-6); experiment: LPS-induced IL-6 expression in IC21, ELISA; format: cell-based, mouse; settings: 0.1 mg/ml LPS, 6 hours
[6] = system: tumor necrosis factor-alpha (TNF-a); experiment: LPS-induced TNF-a expression in IC21, ELISA; format: cell-based, mouse; settings: 0.1 mg/ml LPS, 6 hours, vs control treated with LPS only
[7] = system: NF-κB; experiment: LPS-induced phosphorylation of NF-kB in IC21, Western blot; format: cell-based, mouse; settings: 5 mM peptide, 10 ng/ml endotoxin, 6 hours, vs control treated with LPS only
[8] = system: IL-6 and TNF-a; experiment: Protease resistance: LPS-induced IL-6 and TNF-a in serum-free or 10% FBS medium, ELISA; format: cell-based, mouse; settings: 5 mM peptide, 0.1 mg/ml LPS, IC21, 6 hours
[9] = system: mouse sepsis models induced by LPS; experiment: Mouse sepsis model induced by LPS, survival; format: in vivo, C57BL/6 wild-type mice
Method: Specifically, 2 mg/kg and 5 mg/kg LPS were administered into the abdominal cavity of 7-week-old C57BL/6 wild-type mice every 6 hours, and 1 hour later, 0.4 mg/kg, 2 mg/kg and 10 mg/kg novel peptides were additionally administered into the abdominal cavity of the mice. Then, the survival of the mice was checked for 4 days.

Question: What does the source list for SLVLAYARW [MQP-37D6Y]?
Answer: inflammatory response caused by viral infection (IFN-b), sixth amino acid of MQP-37 substituted, compared to the original peptide ([1]; 2 mM peptide, FIG. 10B-C): effectively inhibited even at a low peptide concentration; inhibiting the inflammatory response caused by viral infection (IFN-b), compared to MQP-37 and MQP-37A6 ([1]; concentration-dependent, FIGS. 13A-A and 13A-B): outstanding effect

Question: Which results are given for SLVLADARW [MQP-37]?
Answer: aggregation of MAVS proteins [2]: decreased; expression level of IFN-b with various concentrations of peptide [1]: decreased in a concentration-dependent manner; expression level of IFN-b, compared with the other peptides ([1]; FIG. 3A-A): more significantly decreased; expression level of IFN-b ([1]; vs control group treated only with polyIC): decreased; expression level of IL-1b, compared with the other peptides ([3]; 5 mM peptide, 0.1 mg/ml LPS or OMV, 6 hours): more significantly decreased; expression level of IL-1b after LPS treatment with various concentrations of peptide ([3]; FIG. 5A-B): decreased in a concentration-dependent manner; activation of caspase-1 [4]: inhibited; expression level of IL-6 after LPS treatment with various concentrations of peptide [5]: decreased in a concentration-dependent manner; expression level of IL-6 ([5]; vs control treated with LPS only): significantly decreased; expression level of TNF-a [6]: significantly decreased; phosphorylation amount of NF-κB [7]: significantly decreased; anti-inflammatory activity (IL-6 and TNF-a) in presence of protease ([8]; 10% FBS cell culture medium): did not exhibit anti-inflammatory activity; anti-inflammatory response (IL-6 and TNF-a) in absence of protease ([8]; serum-free cell culture medium): exhibited the same anti-inflammatory response; treating sepsis [9]: effective
